Measurements reported in PubChem BioAssay AID652243 (Drosophila RNAi Screening Center, 2013)
Screen: 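Fly genes required for human androgen receptor driven transcription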 (primary screen). Cells: Drosophila S2R+ cells. Reagent: long dsRNA against Drosophila genes. Timing: 72 h (48 h, then 24 h hormone). Conditions: synthetic androgen R1881 at 10 nM for 24 h. Measured: 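Per-well raw luminescence of the androgen-driven firefly reporter and of the Renilla control, two replicates each, without normalisation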. Reading the numbers: firefly reporter light: higher = more light from androgen-responsive reporter; Renilla control light: higher = more constitutive control signal (cell number, transfection). Rule for the call: 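Across duplicate plates, a knock-down whose log firefly/Renilla ratio shifted a set fold down or up from the GFP/LacZ control mean was a hit; the downward cut appears as both 1.5 and 3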. Meaning of the calls: active = hit: reporter lowered or raised; inactive = no hit.
The screen tested about 24,000 reagents; shown is a random part of those with a known target gene and a result. Of all reagents, 246 (1%) were called active. 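Plates not normalised; calls are printed but the firefly/Renilla ratio behind them is not deposited; fold cut for lowering reported inconsistently.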 The raw values are shown without normalisation. Reagents against one gene are numbered here. Not given: the amount of reagent.

Against CG5961 #1 the deposit lists firefly reporter light, replicate 1 = 46272; firefly reporter light, replicate 2 = 1.45e5; Renilla control light, replicate 1 = 6.06e5; Renilla control light, replicate 2 = 1.29e6; inactive.
Knock-down of CG5961 #2 gave: firefly reporter light, replicate 1 = 2.58e5; firefly reporter light, replicate 2 = 2.77e5; Renilla control light, replicate 1 = 6.41e5; Renilla control light, replicate 2 = 6.96e5; inactive.
For CG11608, the entry reads firefly reporter light, replicate 1 = 38751; firefly reporter light, replicate 2 = 41691; Renilla control light, replicate 1 = 7.32e5; Renilla control light, replicate 2 = 8.19e5; inactive.
CG41257 (retired record) scored firefly reporter light, replicate 1 = 6.92e5; firefly reporter light, replicate 2 = 8.07e5; Renilla control light, replicate 1 = 1.62e6; Renilla control light, replicate 2 = 1.77e6; inactive.
After knock-down of CG33303, the record shows firefly reporter light, replicate 1 = 1.83e5; firefly reporter light, replicate 2 = 1.91e5; Renilla control light, replicate 1 = 8.83e5; Renilla control light, replicate 2 = 1.54e6; inactive.
Silencing of Spn47C (Serpin 47C) #1 came out at: firefly reporter light, replicate 1 = 4.62e5; firefly reporter light, replicate 2 = 5.35e5; Renilla control light, replicate 1 = 1.05e6; Renilla control light, replicate 2 = 1.08e6; inactive.
With knock-down of Spn47C (Serpin 47C) #2, the screen gave firefly reporter light, replicate 1 = 8.16e5; firefly reporter light, replicate 2 = 7.67e5; Renilla control light, replicate 1 = 1.26e6; Renilla control light, replicate 2 = 1.20e6; inactive.
Silencing of CG34169 gave: firefly reporter light, replicate 1 = 8.56e5; firefly reporter light, replicate 2 = 8.81e5; Renilla control light, replicate 1 = 1.44e6; Renilla control light, replicate 2 = 1.83e6; inactive.
After knock-down of lili (lilipod) #1, the screen gave firefly reporter light, replicate 1 = 76362; firefly reporter light, replicate 2 = 61116; Renilla control light, replicate 1 = 6.53e5; Renilla control light, replicate 2 = 5.75e5; inactive.
Depletion of lili (lilipod) #2 gave: firefly reporter light, replicate 1 = 3.74e5; firefly reporter light, replicate 2 = 4.60e5; Renilla control light, replicate 1 = 8.43e5; Renilla control light, replicate 2 = 8.43e5; inactive.
Idh3a (Isocitrate dehydrogenase 3a) #1 scored firefly reporter light, replicate 1 = 2.05e5; firefly reporter light, replicate 2 = 2.06e5; Renilla control light, replicate 1 = 9.63e5; Renilla control light, replicate 2 = 5.05e5; inactive.
Against Idh3a (Isocitrate dehydrogenase 3a) #2, the entry reads firefly reporter light, replicate 1 = 7.42e5; firefly reporter light, replicate 2 = 9.15e5; Renilla control light, replicate 1 = 1.70e6; Renilla control light, replicate 2 = 2.21e6; inactive.
Silencing of Alp8 (Alkaline phosphatase 8) #1 gave: firefly reporter light, replicate 1 = 1.47e5; firefly reporter light, replicate 2 = 2.07e5; Renilla control light, replicate 1 = 2.07e6; Renilla control light, replicate 2 = 2.35e6; active.
With knock-down of Alp8 (Alkaline phosphatase 8) #2 the results were firefly reporter light, replicate 1 = 2.47e5; firefly reporter light, replicate 2 = 3.39e5; Renilla control light, replicate 1 = 3.46e5; Renilla control light, replicate 2 = 4.57e5; inactive.
For Alp8 (Alkaline phosphatase 8) #3 the deposit lists inactive.
Knock-down of Hira gave: firefly reporter light, replicate 1 = 5.13e5; firefly reporter light, replicate 2 = 5.19e5; Renilla control light, replicate 1 = 2.81e6; Renilla control light, replicate 2 = 2.87e6; inactive.

Laid out differently: results already given.
{"predicted target": "CG5961", "reagent no.": 2, "firefly reporter light, replicate 1": 2.58e5, "firefly reporter light, replicate 2": 2.77e5, "Renilla control light, replicate 1": 6.41e5, "Renilla control light, replicate 2": 6.96e5, "Outcome": "inactive"}
{"predicted target": "CG11608", "reagent no.": 1, "firefly reporter light, replicate 1": 38751, "firefly reporter light, replicate 2": 41691, "Renilla control light, replicate 1": 7.32e5, "Renilla control light, replicate 2": 8.19e5, "Outcome": "inactive"}

Continued:
Against Hs3st-A (Heparan sulfate 3-O sulfotransferase-A) #1, the values are firefly reporter light, replicate 1 = 1.38e5; firefly reporter light, replicate 2 = 2.10e5; Renilla control light, replicate 1 = 8.64e5; Renilla control light, replicate 2 = 1.19e6; inactive.
Silencing of Hs3st-A (Heparan sulfate 3-O sulfotransferase-A) #2 gave: firefly reporter light, replicate 1 = 84548; firefly reporter light, replicate 2 = 1.30e5; Renilla control light, replicate 1 = 1.72e6; Renilla control light, replicate 2 = 1.58e6; inactive.
After knock-down of Hs3st-A (Heparan sulfate 3-O sulfotransferase-A) #3, the record shows firefly reporter light, replicate 1 = 5.38e5; firefly reporter light, replicate 2 = 2.93e5; Renilla control light, replicate 1 = 1.34e6; Renilla control light, replicate 2 = 1.32e6; inactive.
With knock-down of TwdlL (TweedleL), the screen gave firefly reporter light, replicate 1 = 1.21e5; firefly reporter light, replicate 2 = 94825; Renilla control light, replicate 1 = 9.24e5; Renilla control light, replicate 2 = 7.74e5; inactive.
After knock-down of ND6 (retired record), the record shows firefly reporter light, replicate 1 = 6.45e5; firefly reporter light, replicate 2 = 7.64e5; Renilla control light, replicate 1 = 1.99e6; Renilla control light, replicate 2 = 1.55e6; inactive.
RagA-B (Ras-related GTP binding A/B) gave firefly reporter light, replicate 1 = 63558; firefly reporter light, replicate 2 = 89700; Renilla control light, replicate 1 = 3.20e5; Renilla control light, replicate 2 = 4.31e5; inactive.
Sesn (Sestrin) #1 showed firefly reporter light, replicate 1 = 8.53e5; firefly reporter light, replicate 2 = 9.73e5; Renilla control light, replicate 1 = 1.72e6; Renilla control light, replicate 2 = 1.80e6; inactive.
After knock-down of Sesn (Sestrin) #2, the screen gave firefly reporter light, replicate 1 = 4.17e5; firefly reporter light, replicate 2 = 3.74e5; Renilla control light, replicate 1 = 2.41e6; Renilla control light, replicate 2 = 1.79e6; inactive.
Sesn (Sestrin) #3 showed firefly reporter light, replicate 1 = 3.50e5; firefly reporter light, replicate 2 = 3.72e5; Renilla control light, replicate 1 = 2.87e6; Renilla control light, replicate 2 = 2.16e6; inactive.
Depletion of CG32846 #1 came out at: firefly reporter light, replicate 1 = 1.50e5; firefly reporter light, replicate 2 = 3.11e5; Renilla control light, replicate 1 = 3.31e5; Renilla control light, replicate 2 = 3.46e5; inactive.
CG32846 #2 showed firefly reporter light, replicate 1 = 7.20e5; firefly reporter light, replicate 2 = 5.24e5; Renilla control light, replicate 1 = 5.90e5; Renilla control light, replicate 2 = 3.29e5; inactive.
